# Data: patent US12616753B2, “HSP70 inhibitors and methods of using same” (THE WISTAR INSTITUTE, priority 2020, dated 2026)
# Tested on: 1205Lu melanoma cells
# Assay: SILAC proteomics of isolated mitochondria
# Format: cell-based, human
# Conditions: 1 μM, six hours
smiles,measurement,value
"c1ccc(-c2cn3nc(CCCCCC[P+](c4ccccc4)(c4ccccc4)c4ccccc4)sc3n2)cc1 [AP-4-139B, Triphenyl(6-(6-phenylimidazo[2,1-b][1,3,4]thiadiazol-2-yl)hexyl)phosphonium bromide]",mitochondrial proteins downregulated,462 proteins
same,mitochondrial proteins downregulated at least 3-fold,125 proteins
same,proteins with >10-fold decreased abundance in the mitochondria,fourteen
